# From patent US10736970B2, “Polypeptide complex of titin-telethonin beta-pleated sheet structure as polypeptide drug carrier, method of using the polypeptide complex, and fusion protein complex thereof” (TIANJIN INSTITUTE OF INDUSTRIAL BIOTECHNOLOGY, CHINESE …, priority 2015, dated 2020)
# At least one compound was matched to its structure with a doubt left.
# Tested on: SD rats
# Test: Growth hormone content in rats after intraperitoneal injection
# Format: in vivo, rat
# Conditions: i.p. 200 nmol/kg
smiles,measurement,value
"C[C@H](N)C(=O)NCC(=O)N[C@H]1CSSC[C@@H](C(=O)O)NC(=O)[C@H](CO)NC(=O)[C@H]([C@@H](C)O)NC(=O)[C@H](Cc2ccccc2)NC(=O)[C@H]([C@@H](C)O)NC(=O)[C@H](CCCCN)NC(=O)[C@H](Cc2c[nH]c3ccccc23)NC(=O)[C@H](Cc2ccccc2)NC(=O)[C@H](Cc2ccccc2)NC(=O)[C@H](CC(N)=O)NC(=O)[C@H](CCCCN)NC1=O [SST, Somatostatin]",effect on growth hormone in rats,initially significantly inhibit the secretion of growth hormone
